Measured values from PubChem BioAssay AID743255 (National Center for Advancing Translational Sciences (NCATS), 2014).
In all, about 390,000 compounds went through this assay and about 910 (0.23%) were called active. The shares of active, inactive and inconclusive entries below differ from those in the screen. Calls follow the shape of the dose curve; as a rule, active = well fitted inhibition curve with a large enough effect; inconclusive = small, poorly fitted or top-dose-only effect; inactive = no such curve, though single readings can be large or run the other way. A potency beside an inconclusive call is a rough fit, not a confirmed value.

Chains of the proteins cited; added tags and fusions are not shown. Lines headed by an entry give the natural chain unless they say otherwise; changes in a name come on top.
UniProt O94782: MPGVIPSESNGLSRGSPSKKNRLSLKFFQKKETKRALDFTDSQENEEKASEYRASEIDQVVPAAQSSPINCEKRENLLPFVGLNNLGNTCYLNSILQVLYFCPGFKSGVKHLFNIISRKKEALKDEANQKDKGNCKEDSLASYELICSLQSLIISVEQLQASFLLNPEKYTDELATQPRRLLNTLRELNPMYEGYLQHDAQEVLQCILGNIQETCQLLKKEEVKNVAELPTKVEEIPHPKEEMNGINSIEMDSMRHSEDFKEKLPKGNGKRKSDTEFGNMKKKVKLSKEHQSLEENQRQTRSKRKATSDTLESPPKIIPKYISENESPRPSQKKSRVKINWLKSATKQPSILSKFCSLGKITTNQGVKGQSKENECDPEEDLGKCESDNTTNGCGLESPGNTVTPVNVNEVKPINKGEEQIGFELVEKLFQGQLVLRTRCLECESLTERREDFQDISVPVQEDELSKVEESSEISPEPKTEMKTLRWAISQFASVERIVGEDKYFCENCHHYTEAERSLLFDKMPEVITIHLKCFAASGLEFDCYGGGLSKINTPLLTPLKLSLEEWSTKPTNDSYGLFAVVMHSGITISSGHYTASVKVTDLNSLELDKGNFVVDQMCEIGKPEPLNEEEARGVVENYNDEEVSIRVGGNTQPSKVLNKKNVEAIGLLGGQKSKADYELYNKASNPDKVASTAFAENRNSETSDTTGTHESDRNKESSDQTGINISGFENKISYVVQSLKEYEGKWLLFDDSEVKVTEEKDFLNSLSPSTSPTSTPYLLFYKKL

The compounds below were run against Ubiquitin carboxyl-terminal hydrolase 1 (Homo sapiens) (UniProt O94782) (assay: Inhibitors of USP1/UAF1: Primary Screen). Settings: recombinant USP1/UAF1, Ub-Rhodamine cleavage fluorescence; activity change, negative = inhibition: at 57.1 µM (top of the series).
In short: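 High-throughput fluorogenic screen: 1nM USP1/UAF1 complex, Ub-Rho substrate 150nM final, 50mM HEPES pH 7.8 with 0.5mM EDTA, 0.1 mg/ml BSA, 1mM TCEP and 0.01% Tween-20.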
% is scaled to controls: 0 for no effect and ±100 for the full control effect; potency is read from the fitted curve at half-maximal effect.
Also: nearly all actives have a fitted effect of over 60% in size.

Potency, inconclusive:
O=C1c2ccccc2S(=O)(=O)c2cc(C(=O)N3CCN(c4ncccn4)CC3)ccc21 35.5 µM [inhibitor, partial curve, poor fit]
CCOC(=O)c1ccc(Nc2nc3nonc3nc2Nc2cccc(C)c2C)cc1 44.7 µM [inhibitor, partial curve, poor fit]
CCN(CC)c1ccc2cc(-c3nc(-c4ccc(Cl)cc4Cl)cs3)c(=O)oc2c1 39.8 µM [inhibitor, partial curve, poor fit]
CCOc1ccccc1NC(=O)N1CCC(NC(=O)C2CCCCC2)CC1 22.4 µM [inhibitor, partial curve]
O=C(Cn1cc(SCc2ccccc2F)c2ccccc21)N1CCCCCC1 1.41 µM [inhibitor, partial curve, poor fit]
CCOC(=O)c1c(C)n(OCc2ccccc2)c2ccc3nonc3c12 31.6 µM [inhibitor, partial curve, poor fit]
CCOC(=O)c1ccc(-n2c(CN(CC)CC)nc3ccc([N+](=O)[O-])cc3c2=O)cc1 50.1 µM [inhibitor, partial curve, poor fit]
COc1cc(S(=O)(=O)N(Cc2ccccc2)Cc2ccccn2)ccc1-n1cnnn1 0.891 µM [inhibitor, partial curve]
Oc1c(C(c2ccccc2F)N2CCN(c3ccccc3F)CC2)sc2nc(-c3ccco3)nn12 (centres undefined) 2.24 µM [inhibitor, full curve, poor fit]
NC(=O)CN1C(=O)NC2(CCCc3sccc32)C1=O (centres undefined) 4.47 µM [inhibitor, single point]
Cc1ccc(-c2nc(SCC(=O)NCC3CCCO3)c3c(=O)n(C)c(=O)n(C)c3n2)cc1 (centres undefined) 0.282 µM [inhibitor, full curve, poor fit]
CNc1nc(C23CC4CC(CC(C4)C2)C3)cs1 44.7 µM [inhibitor, partial curve, poor fit]
CC(C)(C)OC(=O)NCCCCCNC(=O)c1nc[nH]c1C(=O)N1CCc2ccccc2C1 39.8 µM [inhibitor, partial curve]
O=C(C1CCN(CCc2ccccc2)CC1)N1CCOCC1 6.31 µM [inhibitor, full curve]
CC12CCC(C(=O)N3CCOCC3)([C@H](Br)C1=O)C2(C)C (some centres undefined) 70.8 µM [inhibitor, partial curve, poor fit]
Cc1ccc(OCC(=O)Nc2ccc3nc(SCC(=O)Nc4ccc(C)cc4C)sc3c2)cc1 7.94 µM [inhibitor, partial curve]
COc1cc(/C=C2\C(=O)ON=C2c2ccccc2)cc(Br)c1O 39.8 µM [inhibitor, partial curve, poor fit]
COC(=O)c1sccc1S(=O)(=O)N1CCN(c2ccc(C)cc2C)CC1 56.2 µM [inhibitor, partial curve]
CN1c2cccc3cccc(c23)N(C)C1(C)C 35.5 µM [inhibitor, partial curve]
COc1ccc(C2=NN(C(C#N)c3ccc(OC)cc3)C(c3ccccc3)C2)cc1 (centres undefined) 31.6 µM [inhibitor, partial curve]
Cc1ccc(S(=O)(=O)N2CCC(=O)N(CCOCc3cccc(C(F)(F)F)c3)CC2)cc1 8.91 µM [inhibitor, partial curve]
S=C1NC[C@H](Cc2ccccc2)N1CCc1cccc2ccccc12 50.1 µM [inhibitor, partial curve, poor fit]
Cc1nc2ccccc2c(=O)n1/N=C/c1ccc(OC(F)F)cc1 0.891 µM [inhibitor, full curve, poor fit]
CCOC(=O)C1=C(COC(=O)c2ccc([N+](=O)[O-])s2)NC(=O)NC1C (centres undefined) 35.5 µM [inhibitor, partial curve, poor fit]
COc1cc2c(cc1NC(=O)CSc1nnc(Cc3cccs3)n1C)oc1ccccc12 10 µM [inhibitor, partial curve]
CCN(CC)S(=O)(=O)c1ccc(N2CCN(CCOc3ccc(OC)cc3)CC2)nc1 3.55 µM [inhibitor, partial curve]
COC(=O)c1ccc(NC(=O)CN2CCN(S(=O)(=O)c3ccc(Br)cc3)CC2)cc1 44.7 µM [inhibitor, partial curve, poor fit]
O=C(CCN1C(=O)/C(=C/c2cccs2)SC1=S)Nc1ccc(O)cc1 39.8 µM [inhibitor, partial curve, poor fit]
CN(C)S(=O)(=O)c1ccc(-c2cn3ccccc3n2)cc1 4.47 µM [inhibitor, single point]
Cc1ccc(NC(=O)CN2C(=O)S/C(=C/c3ccc(-c4cc(C(=O)O)ccc4C)o3)C2=O)cc1C 35.5 µM [inhibitor, single point]

Activity change, negative = inhibition, inactive:
O=c1[nH]c(CN2CCN(c3ccc([N+](=O)[O-])cc3)CC2)nc2ccsc12 0.544%
COc1ccc(N2CCN(c3n[nH]c(N)n3)CC2)cc1 -6.34%
C[C@@H]1CN([C@H](C)CO)C(=O)CCCn2cc(nn2)CO[C@H]1CN(C)C(=O)Nc1ccc(-c2cccs2)cc1 25.7%
O=C(CSc1ccc(-c2ccncc2)nn1)c1ccccc1 -4.89%
CN(c1ccccc1)S(=O)(=O)c1ccc2[nH]c(=O)oc2c1 -13.8%
COc1cc2[nH]c3c(=O)n4c(nc3c2cc1OC)SCCC4 -21.8%
N#CC1=C(N)N2C(=C(C#N)C1c1cccc(Br)c1)Nc1ccccc12 (centres undefined) -2.36%
CCOc1ccc(CCNC(=O)c2cc3c(=O)n(C)c4ccccc4c3n2C)cc1OCC -11.4%
COc1cc(NC(=O)Cn2ccn(-c3cc(C)cc(C)c3)c(=O)c2=O)cc(OC)c1 -5.57%
